# Results reported in US7517853 (dated 2009).
# How the values were obtained:
# peptide synthesis = conditions: whole synthesis
# [1] = general procedure: Fmoc solid-phase peptide synthesis; Rink amide MBHA resin (Novabiochem), 0.66 mmol/g; DIC/HOBt; conditions: whole synthesis, analytical HPLC and mass spectrometry, scale of the general procedure 50 μmol
Substance,final HPLC purity (peptide synthesis) [%],final HPLC purity [1] [%]
Dop2-DPhe-cyclo[Cys-3ITyr-DTrp-Lys-Thr-Cys]-Thr-NH2,93.9,
Dop2-DPhe-Doc-DPhe-cyclo[Cys-3ITyr(Dop2)-DTrp-Lys-Val-Cys]-Thr-NH2,95,
Dop2-DLys(Dop2)-DPhe-cyclo[Cys-3ITyr-DTrp-Lys-Thr-Cys]-Thr-NH2,95.7,
Dop2-Lys(Dop2)-DTyr-DTyr-cyclo[Cys-Tyr-DTrp-Lys-Abu-Cys]-Thr-NH2,,93.9
